Test results from article PMC3542282, “P. falciparum cpn20 Is a Bona Fide Co-Chaperonin That Can Replace GroES in E. coli” (PLoS ONE, 2013).
Results are given in words; binding and its absence hold for the method and conditions named. Some entries that bind do so weakly or less than the wild type.

Molecular target: T1, A. thaliana cpn20 (A. thaliana) (UniProt O65282)
T1 sequence: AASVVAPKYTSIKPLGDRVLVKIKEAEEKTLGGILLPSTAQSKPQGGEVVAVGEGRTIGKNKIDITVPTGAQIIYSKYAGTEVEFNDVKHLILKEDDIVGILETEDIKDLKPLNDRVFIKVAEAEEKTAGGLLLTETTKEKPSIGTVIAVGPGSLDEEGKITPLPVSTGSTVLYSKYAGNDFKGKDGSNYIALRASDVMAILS
Test: pull-down; 30 µM his-tagged Cpn20 with 20 µM At-Cpn10, 1 hour, 50 mM Na-HEPES pH 7.7, 150 mM NaCl, 10 mM MgCl2, 100 mM KCl, 25 mM imidazole; Ni-NTA beads, room temperature, 5 washes; SDS-PAGE, Coomassie; both purified

B1: A. thaliana cpn10 (protein, UniProt O80504 40-139)
chain: IKAISTKWEPTKVVPQADRVLVRLEDLPIKSSGGVLLPKAAVKFERYLTGEIISVGSEVGQQVGPGKRVLFSDVSAYEVDLGTDARHCFCKESDLLALVE
With B1 the binding was “binds”.
